Measurements: PubChem BioAssay AID2662 (National Center for Advancing Translational Sciences (NCATS), 2010)
Among all 290,000 compounds or so, about 110 (0.038%) were called active. The inconclusive results got no clear call from the source; some entries with a clear call stand among them for comparison. The call rests on the fitted dose curve; in most records, active means well fitted inhibition curve with a large enough effect in the polarisation, with a control signal flat (not every such curve was filed as active); inconclusive means small, poorly fitted or top-dose-only effect, or effect the other way, or a change in a side signal; inactive means no such curve, though single readings can be large or run the other way; the % refers to the polarisation. A potency beside an inconclusive call is a rough fit, not a confirmed value. A note “side channel” means that the fit belongs to a control or component signal, not to the main read-out.
Potency means the concentration at half of the fitted maximal effect.

By UniProt entry, the sequences of proteins in these tests, tags left out.
UniProt Q03164, whole entry, looked up: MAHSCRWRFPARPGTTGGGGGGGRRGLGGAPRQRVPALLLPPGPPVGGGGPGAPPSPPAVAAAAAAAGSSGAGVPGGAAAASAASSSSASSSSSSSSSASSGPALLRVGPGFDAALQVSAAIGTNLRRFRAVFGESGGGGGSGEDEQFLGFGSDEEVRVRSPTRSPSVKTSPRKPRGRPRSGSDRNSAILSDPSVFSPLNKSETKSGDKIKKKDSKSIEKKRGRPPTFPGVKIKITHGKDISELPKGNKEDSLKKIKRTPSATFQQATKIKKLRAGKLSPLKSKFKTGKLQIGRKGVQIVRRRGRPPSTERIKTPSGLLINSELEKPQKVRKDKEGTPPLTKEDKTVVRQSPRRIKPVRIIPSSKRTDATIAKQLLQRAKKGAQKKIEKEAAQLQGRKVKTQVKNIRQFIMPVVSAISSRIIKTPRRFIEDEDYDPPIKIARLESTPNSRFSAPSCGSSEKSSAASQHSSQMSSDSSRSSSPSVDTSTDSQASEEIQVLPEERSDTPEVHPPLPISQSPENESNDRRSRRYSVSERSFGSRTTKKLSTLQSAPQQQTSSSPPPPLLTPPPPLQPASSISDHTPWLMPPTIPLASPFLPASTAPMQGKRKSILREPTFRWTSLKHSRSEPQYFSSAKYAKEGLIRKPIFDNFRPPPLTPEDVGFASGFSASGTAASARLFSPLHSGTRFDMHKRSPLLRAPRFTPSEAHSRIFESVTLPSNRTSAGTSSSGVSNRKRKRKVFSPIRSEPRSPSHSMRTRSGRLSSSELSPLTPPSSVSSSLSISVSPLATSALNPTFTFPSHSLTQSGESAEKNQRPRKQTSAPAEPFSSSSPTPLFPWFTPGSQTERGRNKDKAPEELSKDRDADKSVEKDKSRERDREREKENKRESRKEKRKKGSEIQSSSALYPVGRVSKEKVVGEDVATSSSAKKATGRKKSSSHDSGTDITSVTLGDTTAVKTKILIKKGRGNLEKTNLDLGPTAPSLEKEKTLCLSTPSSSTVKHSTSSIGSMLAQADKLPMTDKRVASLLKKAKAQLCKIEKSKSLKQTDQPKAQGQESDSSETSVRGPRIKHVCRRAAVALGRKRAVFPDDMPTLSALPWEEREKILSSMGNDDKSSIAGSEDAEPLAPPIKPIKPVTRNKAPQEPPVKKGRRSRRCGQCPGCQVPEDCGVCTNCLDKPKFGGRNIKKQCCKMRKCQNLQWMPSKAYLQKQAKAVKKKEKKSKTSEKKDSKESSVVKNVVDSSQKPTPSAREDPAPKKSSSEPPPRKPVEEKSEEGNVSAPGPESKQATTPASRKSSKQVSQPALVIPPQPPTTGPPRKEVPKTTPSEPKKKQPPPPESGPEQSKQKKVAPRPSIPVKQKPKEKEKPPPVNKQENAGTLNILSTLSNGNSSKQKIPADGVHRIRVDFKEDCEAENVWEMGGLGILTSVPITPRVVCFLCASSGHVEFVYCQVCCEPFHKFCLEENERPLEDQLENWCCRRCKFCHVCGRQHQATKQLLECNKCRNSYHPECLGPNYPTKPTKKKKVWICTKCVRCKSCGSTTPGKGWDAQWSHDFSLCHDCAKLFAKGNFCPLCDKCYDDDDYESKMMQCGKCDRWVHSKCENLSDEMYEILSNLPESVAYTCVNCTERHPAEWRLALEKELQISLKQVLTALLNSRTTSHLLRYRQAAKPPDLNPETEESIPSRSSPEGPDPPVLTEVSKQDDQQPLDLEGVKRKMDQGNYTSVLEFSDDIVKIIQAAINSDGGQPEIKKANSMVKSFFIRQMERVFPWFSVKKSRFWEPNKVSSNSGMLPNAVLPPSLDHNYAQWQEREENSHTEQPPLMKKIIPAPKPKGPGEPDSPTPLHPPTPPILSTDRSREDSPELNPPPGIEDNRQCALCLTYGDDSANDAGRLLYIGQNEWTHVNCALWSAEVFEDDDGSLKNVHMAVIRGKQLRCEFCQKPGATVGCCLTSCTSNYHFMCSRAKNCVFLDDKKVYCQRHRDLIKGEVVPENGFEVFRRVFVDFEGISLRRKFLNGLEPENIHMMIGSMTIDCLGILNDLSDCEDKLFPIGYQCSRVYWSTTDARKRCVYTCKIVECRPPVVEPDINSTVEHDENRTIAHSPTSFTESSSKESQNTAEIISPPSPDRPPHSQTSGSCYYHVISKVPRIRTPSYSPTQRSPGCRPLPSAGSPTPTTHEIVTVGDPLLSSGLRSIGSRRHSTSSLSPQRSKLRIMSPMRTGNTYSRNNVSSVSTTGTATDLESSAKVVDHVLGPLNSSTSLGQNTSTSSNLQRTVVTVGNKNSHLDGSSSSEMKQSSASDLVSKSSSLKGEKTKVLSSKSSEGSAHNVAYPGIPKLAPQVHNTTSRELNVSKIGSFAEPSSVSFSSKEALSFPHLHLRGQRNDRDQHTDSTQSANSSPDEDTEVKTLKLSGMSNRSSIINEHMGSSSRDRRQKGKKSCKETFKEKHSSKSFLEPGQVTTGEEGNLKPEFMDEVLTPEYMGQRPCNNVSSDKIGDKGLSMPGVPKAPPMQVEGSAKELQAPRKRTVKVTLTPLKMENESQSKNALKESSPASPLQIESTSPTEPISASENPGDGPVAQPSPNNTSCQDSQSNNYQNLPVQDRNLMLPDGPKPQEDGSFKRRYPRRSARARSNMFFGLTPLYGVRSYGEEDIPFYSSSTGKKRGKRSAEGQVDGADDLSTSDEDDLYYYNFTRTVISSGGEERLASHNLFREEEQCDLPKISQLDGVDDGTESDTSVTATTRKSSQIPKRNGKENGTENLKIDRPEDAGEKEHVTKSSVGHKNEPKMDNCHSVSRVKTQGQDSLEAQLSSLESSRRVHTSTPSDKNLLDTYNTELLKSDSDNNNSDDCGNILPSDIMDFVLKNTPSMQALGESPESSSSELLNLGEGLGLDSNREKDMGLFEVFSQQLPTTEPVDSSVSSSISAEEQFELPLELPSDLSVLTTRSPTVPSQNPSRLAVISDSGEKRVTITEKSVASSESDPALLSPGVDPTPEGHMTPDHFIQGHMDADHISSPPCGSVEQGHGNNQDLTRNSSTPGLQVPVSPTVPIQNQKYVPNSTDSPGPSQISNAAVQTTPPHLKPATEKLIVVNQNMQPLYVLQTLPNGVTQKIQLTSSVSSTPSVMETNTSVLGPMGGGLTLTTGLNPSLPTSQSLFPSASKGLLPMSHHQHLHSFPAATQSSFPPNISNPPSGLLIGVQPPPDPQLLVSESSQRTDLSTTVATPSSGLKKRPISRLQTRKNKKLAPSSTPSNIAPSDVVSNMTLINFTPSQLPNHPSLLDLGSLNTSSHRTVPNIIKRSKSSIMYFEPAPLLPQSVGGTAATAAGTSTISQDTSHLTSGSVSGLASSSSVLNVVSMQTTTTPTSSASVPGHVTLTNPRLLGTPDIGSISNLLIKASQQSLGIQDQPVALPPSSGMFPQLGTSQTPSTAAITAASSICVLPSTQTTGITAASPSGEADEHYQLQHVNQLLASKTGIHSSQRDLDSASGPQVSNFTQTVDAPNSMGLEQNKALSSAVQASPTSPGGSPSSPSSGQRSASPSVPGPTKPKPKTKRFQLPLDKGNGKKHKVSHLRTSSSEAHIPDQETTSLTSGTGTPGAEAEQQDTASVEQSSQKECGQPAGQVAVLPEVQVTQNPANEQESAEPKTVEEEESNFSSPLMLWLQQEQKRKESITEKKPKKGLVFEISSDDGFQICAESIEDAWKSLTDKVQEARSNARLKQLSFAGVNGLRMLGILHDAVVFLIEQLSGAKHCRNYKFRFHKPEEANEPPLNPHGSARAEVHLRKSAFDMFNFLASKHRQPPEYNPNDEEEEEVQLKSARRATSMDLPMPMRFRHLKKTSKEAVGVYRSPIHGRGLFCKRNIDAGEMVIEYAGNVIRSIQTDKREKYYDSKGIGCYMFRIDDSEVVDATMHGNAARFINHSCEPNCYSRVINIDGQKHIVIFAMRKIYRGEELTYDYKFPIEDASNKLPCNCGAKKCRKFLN

The molecules below were run against Histone-lysine N-methyltransferase 2A (Homo sapiens) (UniProt Q03164) (assay: qHTS Fluorescence Polarization Assay for Inhibitors of MLL CXXC domain - DNA interaction). Details: MLL-CXXC / FITC-HOXA9 DNA fluorescence polarization; activity change, negative = inhibition: at 115 µM (top of the series).
How it was run: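 Purified MLL-CXXC (added from a 7 uM solution) was preincubated 5 min at ambient with pinned compounds in 50 mM Tris-HCl pH 7.5, 50 mM NaCl, 1 mM DTT, 0.05% BSA. Fluorescein-labeled HOX-A9 DNA (50 nM solution) followed, 30 min, then polarization read.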
For `CC(C(=O)O)c1ccc(CC2CCCC2=O)cc1` (stereo not given), the Potency was inconclusive: 79.4 µM [fluorescent, side channel, partial curve]. For `CCOc1ccc(N2CCCn3c2nc2c3c(=O)n(CCc3ccccc3)c(=O)n2C)cc1`, the Potency was inconclusive: 56.2 µM [quencher, side channel, partial curve]. For `CCc1ccccc1NC(=S)N1CCCCCC1`, the Potency was inconclusive: 10 µM [quencher, side channel, partial curve]. For `Cc1ccc(/C=C2/SC(=O)N(CC(=O)N3CCOCC3)C2=O)s1`, the Potency was inconclusive: 63.1 µM [fluorescent, single point]. `O=C(O)CCCCCNS(=O)(=O)c1cccc2c1C(=O)c1ccccc1C2=O` was tested, and the Potency was “inactive”. In the case of `COc1ccc(OC)c(S(=O)(=O)NCc2cc(-c3ccccc3)no2)c1`, the Potency is reported as inconclusive: 11.2 µM [fluorescent, side channel, single point]. For `CCOC(=O)c1c(C)oc2c1c(C=NCc1ccccn1)c(O)c1ccccc12`, the Potency was “inactive”. In the case of `CS(=O)(=O)Nc1ccc(-c2ccc(/C=C3\SC(N)=NC3=O)o2)cc1`, the Potency is reported as inconclusive: 2.82 µM [fluorescent, side channel, full curve]. In the case of `CC(C)CCNC(=O)COC(=O)c1ccc(Br)o1`, the Potency is reported as inconclusive: 44.7 µM [quencher, side channel, single point]. For `COc1cc(/C=C2\SC(c3ccccc3)=NC2=O)cc(Cl)c1O`, the Potency was inconclusive: 31.6 µM [inhibitor, partial curve]. With `COc1cc(/C=N/NC2=NCCCCC2)ccc1O` the Potency was “inactive”. `CC1=C(C(=O)N2CCOCC2)C(c2ccc(O)cc2)NC(=S)N1` (stereo not given) was tested, and the Potency was “inactive”. For `CCOC(=O)C1C(=O)C=C(/C=C/c2ccc(N(C)C)cc2)CC1c1ccccc1` (stereo not given), the Potency was inconclusive: 1 µM [fluorescent, side channel, full curve, poor fit]. With `CCOc1cc(/C=C2\SC(=S)N(C(C(=O)O)c3ccccc3)C2=O)ccc1O` (stereo not given) the Potency was inconclusive: 15.8 µM [fluorescent, side channel, full curve]. In the case of `CN(C)CCCNc1oc(-c2ccccc2Cl)nc1S(=O)(=O)c1ccc(F)cc1`, the Potency is reported as inconclusive: 25.1 µM [quencher, side channel, partial curve]. For `CC(C)(C)/C(COc1ccccc1[N+](=O)[O-])=N/O`, the Potency was inconclusive: 89.1 µM [inhibitor, single point]. For `CN(C)c1ccc(/C=C/c2nc3ccccc3s2)cc1`, the Potency was “inactive”. For `Cc1cc2[nH]c(=O)c(=O)[nH]c2cc1S(=O)(=O)N1CCN(c2cccc(C(F)(F)F)c2)CC1`, the Potency was “inactive”. With `CC1(C)C=Cc2c(c3c(c4c(=O)c(-c5ccc(O)cc5)coc24)OC(C)(C)CC3)O1` the Potency was “inactive”. With `O=C(c1ccc([N+](=O)[O-])cc1)N1CCN(C(=O)C2CCCCC2)CC1` the Potency was inconclusive: 14.1 µM [quencher, side channel, single point]. In the case of `CN(C1(C)CCS(=O)(=O)C1)S(=O)(=O)c1ccc(F)cc1` (stereo not given), the Potency is reported as inconclusive: 5.62 µM [fluorescent, side channel, partial curve]. In the case of `O=C(CCS(=O)(=O)Cc1ccc(Cl)cc1)NCCc1ccccc1`, the Potency is reported as inconclusive: 17.8 µM [fluorescent, side channel, full curve]. `COc1ccc2nc(N3C(=O)/C(=C/c4ccccc4)NC3=S)sc2c1` was tested, and the Potency was inconclusive: 11.2 µM [fluorescent, side channel, partial curve]. In the case of `Oc1c(Br)cc(Cl)cc1C=Nc1ccc(N2CCOCC2)cc1`, the Potency is reported as “inactive”. With `Cc1cccc(NC(=S)NNC(=O)c2cc3c(s2)CCC(C)C3)c1C` (stereo not given) the Potency was inconclusive: 1.41 µM [fluorescent, side channel, full curve]. For `CS(=O)(=O)Nc1ccc(C(=O)NCCSC2CCCCC2)cc1`, the Potency was inconclusive: 63.1 µM [fluorescent, single point]. `Cc1cc(NC(=O)CCCN2C(=O)c3cccnc3C2=O)ccc1Br` was tested, and the Potency was “inactive”. `O=C(OCCOc1cccc(Cl)c1)C1CCN(S(=O)(=O)c2ccccc2)CC1` was tested, and the Potency was inconclusive: 15.8 µM [fluorescent, side channel, single point]. For `O=C(c1ccc(Br)o1)N1CCN(c2ccc3nnc(-c4ccccc4)n3n2)CC1`, the Potency was “inactive”. For `CCOC(=O)CC1C(=O)NCCN1c1nc2c(C)cccn2c(=O)c1/C=C1\SC(=S)N(CC(C)C)C1=O` (stereo not given), the Potency was inconclusive: 10 µM [fluorescent, side channel, full curve]. In the case of `O=C(O)CCc1ccc(-c2ccccc2)n1CC(=O)O`, the Potency is reported as “inactive”. `CCOC(=O)C1CCN(C(=O)CSc2nccc(C)n2)CC1` was tested, and the Potency was inconclusive: 31.6 µM [fluorescent, side channel, partial curve]. For `CN(/C=C/C(=C\C=[N+](C)c1ccccc1)OCCCS(=O)(=O)[O-])c1ccccc1`, the Potency was inconclusive: 39.8 µM [fluorescent, side channel, partial curve]. With `NS(=O)(=O)c1cccc(NC(=O)COc2ccc([N+](=O)[O-])cc2)c1` the Potency was “inactive”. `Cc1ccc(/C=C2\CCC(C3CCCC3)C2=O)cc1` (stereo not given) was tested, and the Potency was inconclusive: 35.5 µM [fluorescent, side channel, partial curve]. For `Cc1ccc(/C=C2\Oc3c(ccc(O)c3CN3CCN(C)CC3)C2=O)cc1`, the Potency was inconclusive: 31.6 µM [fluorescent, side channel, partial curve]. In the case of `CCN1CCc2c(sc(NC(=O)c3ccc(S(=O)(=O)N(CC)c4ccccc4)cc3)c2C(N)=O)C1`, the Potency is reported as inconclusive: 39.8 µM [fluorescent, side channel, partial curve]. With `Oc1sc(C=Nc2ccccc2)c2ccccc12` the Potency was inconclusive: 50.1 µM [fluorescent, side channel, partial curve]. With `COc1ccc(N2CC(NC(=O)N3CCN(c4ccccc4)CC3)CC2=O)cc1` (stereo not given) the Potency was inconclusive: 1.41 µM [fluorescent, side channel, full curve]. `O=C(c1ccco1)N1N=C(c2cccs2)CC1c1ccccc1O` (stereo not given) was tested, and the activity change, negative = inhibition was inconclusive: 22.6% [phenotype inactive].
